Experimental findings from publication PMC7994790 are described below.

These are yes or no findings as the source states them, for the method shown. In cells and extracts the contact can be indirect. Binding calls can cover weak binding; strength is not graded here. Sequences can lack the tags named with a protein.

The target in this test is T1, Flag-ETAA1 / HA-ETAA1 (UniProt Q9NY74).
T1 sequence: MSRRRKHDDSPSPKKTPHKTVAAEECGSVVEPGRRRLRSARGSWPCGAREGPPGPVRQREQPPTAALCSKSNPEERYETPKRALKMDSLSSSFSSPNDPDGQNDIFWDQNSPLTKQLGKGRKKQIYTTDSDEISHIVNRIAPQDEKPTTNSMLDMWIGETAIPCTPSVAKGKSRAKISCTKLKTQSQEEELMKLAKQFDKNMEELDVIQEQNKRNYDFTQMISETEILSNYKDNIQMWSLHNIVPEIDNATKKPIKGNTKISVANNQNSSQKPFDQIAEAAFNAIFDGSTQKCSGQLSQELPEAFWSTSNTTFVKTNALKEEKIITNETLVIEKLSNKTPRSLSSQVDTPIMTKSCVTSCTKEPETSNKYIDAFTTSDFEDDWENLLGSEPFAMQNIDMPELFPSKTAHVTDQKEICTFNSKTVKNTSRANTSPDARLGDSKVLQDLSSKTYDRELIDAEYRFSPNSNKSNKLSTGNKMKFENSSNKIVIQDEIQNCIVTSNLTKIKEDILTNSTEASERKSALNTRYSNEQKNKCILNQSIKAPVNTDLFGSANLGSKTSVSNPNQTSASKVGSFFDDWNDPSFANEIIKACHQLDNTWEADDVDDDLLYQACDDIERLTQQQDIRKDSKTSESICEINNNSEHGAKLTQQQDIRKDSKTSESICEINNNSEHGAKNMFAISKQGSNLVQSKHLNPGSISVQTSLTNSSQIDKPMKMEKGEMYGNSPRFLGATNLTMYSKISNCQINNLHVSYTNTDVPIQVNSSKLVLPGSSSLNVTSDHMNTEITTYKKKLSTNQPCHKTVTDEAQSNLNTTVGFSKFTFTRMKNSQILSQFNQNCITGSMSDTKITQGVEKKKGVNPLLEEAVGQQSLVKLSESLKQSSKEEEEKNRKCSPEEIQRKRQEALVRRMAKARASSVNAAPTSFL
The test is described as follows: co-IP; HEK293T cells transfected; NP-40 lysis buffer (in some experiments 0.75% CHAPS); anti-Flag M2 affinity gel or anti-HA agarose, 1–2 h at 4 °C; immunoblot; no AP20187 system.

With HA-ETAA1 ΔRPA (from UniProt Q9NY74), the binding entry is listed as “binds”.
